Source: paper PMC10883948
These are yes or no findings as the source states them, for the method shown. Some binding calls cover weakened binding; strength is not graded here.

By UniProt entry, the sequences of proteins in these tests, tags left out. Residues count along the entry.
UniProt P53762: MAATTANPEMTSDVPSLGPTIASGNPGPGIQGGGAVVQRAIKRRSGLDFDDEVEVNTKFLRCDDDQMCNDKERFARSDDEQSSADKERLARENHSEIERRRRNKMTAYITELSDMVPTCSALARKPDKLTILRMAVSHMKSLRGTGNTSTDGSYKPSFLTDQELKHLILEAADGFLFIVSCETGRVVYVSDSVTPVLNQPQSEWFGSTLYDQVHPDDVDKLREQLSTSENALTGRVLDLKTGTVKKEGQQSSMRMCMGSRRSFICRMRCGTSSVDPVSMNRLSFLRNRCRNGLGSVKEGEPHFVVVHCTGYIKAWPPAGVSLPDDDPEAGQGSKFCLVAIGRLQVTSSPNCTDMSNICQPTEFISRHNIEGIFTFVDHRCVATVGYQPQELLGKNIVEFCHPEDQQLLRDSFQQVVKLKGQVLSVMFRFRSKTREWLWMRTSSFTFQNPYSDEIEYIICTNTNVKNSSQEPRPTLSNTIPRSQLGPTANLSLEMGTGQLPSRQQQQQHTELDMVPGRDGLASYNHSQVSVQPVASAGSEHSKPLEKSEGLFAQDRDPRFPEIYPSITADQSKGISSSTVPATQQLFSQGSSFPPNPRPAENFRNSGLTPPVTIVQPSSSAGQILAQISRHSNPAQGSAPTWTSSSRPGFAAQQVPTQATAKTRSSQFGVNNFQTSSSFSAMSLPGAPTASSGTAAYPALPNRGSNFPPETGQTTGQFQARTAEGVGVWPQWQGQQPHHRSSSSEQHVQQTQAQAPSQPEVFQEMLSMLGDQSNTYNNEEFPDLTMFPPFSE
UniProt P30561, residues 10-848: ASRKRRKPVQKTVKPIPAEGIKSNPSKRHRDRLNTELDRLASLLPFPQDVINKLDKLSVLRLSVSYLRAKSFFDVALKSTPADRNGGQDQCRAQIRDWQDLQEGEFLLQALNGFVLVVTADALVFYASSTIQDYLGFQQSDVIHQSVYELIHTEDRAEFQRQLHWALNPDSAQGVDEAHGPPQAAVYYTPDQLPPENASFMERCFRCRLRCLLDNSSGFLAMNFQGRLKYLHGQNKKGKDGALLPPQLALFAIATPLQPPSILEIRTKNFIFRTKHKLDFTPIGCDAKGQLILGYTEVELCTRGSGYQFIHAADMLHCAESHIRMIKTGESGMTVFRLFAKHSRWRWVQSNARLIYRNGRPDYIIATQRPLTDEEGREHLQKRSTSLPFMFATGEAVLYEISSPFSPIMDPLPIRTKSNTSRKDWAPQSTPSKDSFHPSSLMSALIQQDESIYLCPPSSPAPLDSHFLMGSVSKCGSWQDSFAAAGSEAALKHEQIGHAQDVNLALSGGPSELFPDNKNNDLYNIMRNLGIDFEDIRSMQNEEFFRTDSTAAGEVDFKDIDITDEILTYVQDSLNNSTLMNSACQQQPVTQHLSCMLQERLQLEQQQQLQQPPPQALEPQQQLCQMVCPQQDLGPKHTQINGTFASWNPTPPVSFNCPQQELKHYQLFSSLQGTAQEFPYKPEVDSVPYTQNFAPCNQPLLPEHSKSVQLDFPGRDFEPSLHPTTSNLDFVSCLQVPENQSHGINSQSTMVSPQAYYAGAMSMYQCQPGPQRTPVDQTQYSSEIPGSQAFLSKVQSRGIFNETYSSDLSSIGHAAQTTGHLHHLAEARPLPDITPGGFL

Biological target: AHR nuclear translocator (mouse (endogenous in naive CD4+ T cells)) (UniProt P53762)
Assay: Western blot under non-reduced denaturing conditions; mouse naive CD4+ T cells under Th17-inducing conditions, with or without LA (con+LA group); AHR and ARNT detected

aryl hydrocarbon receptor (from UniProt P30561 10-848)
binding: binds
